{"source": "paper PMC5008309", "molecular_target": "ERBB3-cytosolic region (CR)", "experiment": "co-IP; HEK293T cells co-transfected with pHA-APIP (or APIP deletion mutant) and pERBB3-3xFLAG (or ERBB3 deletion mutant) for 24 h; whole-cell lysates immunoprecipitated; western blotting", "note": "These are yes or no findings as the source states them, for the method shown. In cells and extracts the contact can be indirect. A result given as binding can be weak or reduced; the word gives no strength. Tags and fused reporters may be left off the sequences shown."}
{"binder": "HA-tagged APIP (pHA-APIP) expressed in HEK293T cells (protein, UniProt Q96GX9-1 1-242) MSGCDAREGDCCSRRCGAQDKEHPRYLIPELCKQFYHLGWVTGTGGGISLKHGDEIYIAPSGVQKERIQPEDMFVCDINEKDISGPSPSKKLKKSQCTPLFMNAYTMRGAGAVIHTHSKAAVMATLLFPGREFKITHQEMIKGIKKCTSGGYYRYDDMLVVPIIENTPEEKDLKDRMAHAMNEYPDSCAVLVRRHGVYVWGETWEKAKTMCECYDYLFDIAVSMKKVGLDPSQLPVGENGIV", "values": [{"measurement": "binding", "value": "binds"}]}
